These are yes or no findings as the source states them, for the method shown. In cells and extracts the contact can be indirect. Some results given as binding are weak or reduced against the parent protein; the word gives no strength.
Target: c-Myb transactivation domain (aa186-325) fused to GST (UniProt P06876)
Experiment: pull-down; c-Myb transactivation domain (aa186-325) fused to GST as bait; extracts from wild type and CBP^KIX/KIX mouse embryonic fibroblasts; Buffer C (extraction buffer without protein) as control; only the target purified

Protein sequences, listed by entry. Tags and fused reporters are not part of them. Residues count along the entry.
UniProt P06876, residues 186-325: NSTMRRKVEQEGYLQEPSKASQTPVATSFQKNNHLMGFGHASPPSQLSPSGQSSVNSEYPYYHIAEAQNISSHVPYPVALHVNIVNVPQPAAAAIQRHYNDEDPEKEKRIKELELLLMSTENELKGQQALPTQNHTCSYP
UniProt P45481: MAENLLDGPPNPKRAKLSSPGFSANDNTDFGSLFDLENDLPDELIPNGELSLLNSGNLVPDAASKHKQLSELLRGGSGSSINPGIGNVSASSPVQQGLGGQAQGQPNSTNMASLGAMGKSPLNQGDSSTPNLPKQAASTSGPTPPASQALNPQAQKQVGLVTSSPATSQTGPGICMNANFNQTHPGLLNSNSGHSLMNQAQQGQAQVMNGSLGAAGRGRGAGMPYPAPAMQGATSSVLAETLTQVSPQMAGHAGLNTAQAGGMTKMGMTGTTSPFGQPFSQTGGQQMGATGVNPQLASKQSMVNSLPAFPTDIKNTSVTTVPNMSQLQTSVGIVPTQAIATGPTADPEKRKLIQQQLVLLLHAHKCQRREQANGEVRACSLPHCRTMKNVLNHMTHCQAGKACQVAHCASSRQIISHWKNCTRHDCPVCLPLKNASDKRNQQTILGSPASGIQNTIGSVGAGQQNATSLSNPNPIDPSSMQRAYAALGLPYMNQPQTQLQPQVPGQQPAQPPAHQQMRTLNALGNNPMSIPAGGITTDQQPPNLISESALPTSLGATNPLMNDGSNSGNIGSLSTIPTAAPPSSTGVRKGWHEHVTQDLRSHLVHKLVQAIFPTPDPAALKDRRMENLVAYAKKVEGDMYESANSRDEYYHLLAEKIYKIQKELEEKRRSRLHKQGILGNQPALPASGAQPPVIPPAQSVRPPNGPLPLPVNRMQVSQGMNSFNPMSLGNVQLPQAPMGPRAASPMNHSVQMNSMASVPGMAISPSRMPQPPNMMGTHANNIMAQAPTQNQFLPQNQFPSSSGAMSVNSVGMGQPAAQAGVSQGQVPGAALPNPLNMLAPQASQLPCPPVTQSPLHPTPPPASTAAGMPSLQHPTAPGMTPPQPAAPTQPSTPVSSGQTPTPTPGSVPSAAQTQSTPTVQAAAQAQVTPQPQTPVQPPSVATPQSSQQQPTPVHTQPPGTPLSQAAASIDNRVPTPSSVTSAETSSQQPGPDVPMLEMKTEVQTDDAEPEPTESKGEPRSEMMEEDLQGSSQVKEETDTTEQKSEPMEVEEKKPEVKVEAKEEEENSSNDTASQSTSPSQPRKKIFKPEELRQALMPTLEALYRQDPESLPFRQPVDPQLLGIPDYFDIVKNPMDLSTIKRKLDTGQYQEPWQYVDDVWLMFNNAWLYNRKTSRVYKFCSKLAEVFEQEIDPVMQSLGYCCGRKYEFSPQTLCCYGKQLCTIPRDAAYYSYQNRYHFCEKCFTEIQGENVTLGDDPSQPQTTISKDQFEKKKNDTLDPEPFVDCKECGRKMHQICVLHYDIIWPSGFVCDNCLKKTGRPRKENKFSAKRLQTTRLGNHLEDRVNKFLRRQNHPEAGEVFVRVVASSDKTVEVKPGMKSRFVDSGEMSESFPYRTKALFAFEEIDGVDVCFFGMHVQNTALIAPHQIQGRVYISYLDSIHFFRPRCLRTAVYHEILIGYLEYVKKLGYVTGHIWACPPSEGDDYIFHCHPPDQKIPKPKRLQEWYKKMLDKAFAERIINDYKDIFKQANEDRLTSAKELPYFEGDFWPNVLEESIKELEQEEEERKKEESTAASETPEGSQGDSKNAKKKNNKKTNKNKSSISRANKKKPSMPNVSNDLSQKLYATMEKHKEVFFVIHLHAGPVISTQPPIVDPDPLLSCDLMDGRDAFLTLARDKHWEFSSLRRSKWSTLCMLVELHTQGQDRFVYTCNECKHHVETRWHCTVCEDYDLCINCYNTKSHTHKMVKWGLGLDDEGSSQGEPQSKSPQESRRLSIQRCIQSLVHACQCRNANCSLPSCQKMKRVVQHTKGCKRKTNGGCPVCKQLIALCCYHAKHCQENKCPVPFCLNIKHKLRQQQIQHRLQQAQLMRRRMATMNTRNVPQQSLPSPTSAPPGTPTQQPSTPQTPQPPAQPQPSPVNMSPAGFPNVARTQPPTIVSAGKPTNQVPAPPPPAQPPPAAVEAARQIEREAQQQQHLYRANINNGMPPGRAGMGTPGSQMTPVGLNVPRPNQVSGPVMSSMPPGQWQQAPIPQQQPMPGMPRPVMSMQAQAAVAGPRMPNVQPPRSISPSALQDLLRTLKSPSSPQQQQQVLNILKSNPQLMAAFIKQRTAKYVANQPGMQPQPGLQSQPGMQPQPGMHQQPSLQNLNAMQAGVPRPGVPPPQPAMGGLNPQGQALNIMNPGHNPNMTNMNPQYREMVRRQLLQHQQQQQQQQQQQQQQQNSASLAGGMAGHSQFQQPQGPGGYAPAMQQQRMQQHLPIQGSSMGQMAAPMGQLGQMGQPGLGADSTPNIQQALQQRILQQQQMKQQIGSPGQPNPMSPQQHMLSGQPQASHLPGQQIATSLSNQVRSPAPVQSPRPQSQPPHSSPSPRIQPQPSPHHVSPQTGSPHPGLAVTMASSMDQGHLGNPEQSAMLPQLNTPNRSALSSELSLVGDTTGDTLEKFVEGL

binding: binds
Substance: CBP (CREB binding protein, Crebbp) (from UniProt P45481 1-2441)

Reference: paper PMC3858336
